# Measurements taken from PubChem BioAssay AID540256 (National Center for Advancing Translational Sciences (NCATS), 2011).
# Among all 300,000 compounds or so, about 3,700 (1.2%) were called active. The shares of active, inactive and inconclusive entries below differ from those in the screen. The call rests on the fitted dose curve; tested in HEK293 cells. A potency beside an inconclusive call is a rough fit, not a confirmed value.
# Test: qHTS for Inhibitors of binding or entry into cells for Lassa Virus; further: nearly all actives have a fitted effect of over 50% in size
# Conditions: Lassa virus pseudotype entry inhibition, cell reporter; series mostly up to 37.9 µM
# Potency means the concentration at half of the fitted maximal effect.
row,SMILES,Potency
1,CCc1cc2c(N3CCN(c4nnc(CC)s4)CC3)ncnc2s1,"inconclusive: 35.5 µM [inhibitor, single point]"
2,O=C(O)CC1(CC(=O)Nc2ccc(F)c(Cl)c2)CCCCC1,"inconclusive: 0.794 µM [inhibitor, full curve, poor fit]"
3,Clc1ccc(CSc2nnc(-c3ccncc3)o2)cc1,inactive
4,CCOc1ccc(C(C(=O)NC2CCCC2)N(CCOC)C(=O)CNC(=O)c2ccco2)cc1 (stereo not drawn),"inconclusive: 35.5 µM [inhibitor, single point]"
5,CC1Cc2ccccc2N1C(=O)CSc1nnc(Cc2ccccc2)n1CCc1ccccc1 (stereo not drawn),"inconclusive: 22.4 µM [inhibitor, single point]"
6,Cc1nn(CC(=O)c2cccc(Cl)c2)c(C)c1[N+](=O)[O-],inactive
7,COc1ccc(NC(=O)/C(Cl)=C(/Cl)S(=O)Cc2ccccc2Cl)cn1 (stereo not drawn),"inconclusive: 7.08 µM [inhibitor, partial curve, poor fit]"
8,COc1cccc(-n2c(-c3ccco3)nc3c(cnn3-c3ccccc3C)c2=O)c1,"inconclusive: 11.2 µM [inhibitor, partial curve, poor fit]"
9,O=C(NNc1ccccc1Br)C(O)(c1cccc(C(F)(F)F)c1)c1cccc(C(F)(F)F)c1,"inconclusive: 31.6 µM [inhibitor, single point]"
10,CSc1ccc(/C=N/n2c(Cc3ccc(Br)cc3)n[nH]c2=S)cc1,"inconclusive: 10 µM [inhibitor, partial curve, poor fit]"
11,Cc1occc1-c1nnc(SCC(=O)Nc2ccccn2)o1,"inconclusive: 11.2 µM [activator, partial curve, poor fit]"
12,COc1ccc(CNc2oc(COc3ccccc3)nc2C#N)cc1,"inconclusive: 35.5 µM [inhibitor, single point]"
13,CC(C)N(Cc1ccccc1)S(=O)(=O)c1ccc2c(c1)NC(=O)CO2,"inconclusive: 3.55 µM [inhibitor, partial curve, poor fit]"
14,CCOC(=O)c1ccc(NC(=O)c2c(NCc3cccc(OC)c3)sc3c2CCC3)cc1,"inconclusive: 35.5 µM [activator, single point]"
15,COC(C(=O)Nc1ccc(S(=O)(=O)Nc2cccc3ccccc23)cc1)c1ccccc1 (stereo not drawn),"inconclusive: 10 µM [inhibitor, partial curve, poor fit]"
16,CCn1ccnc1CN1CCN(CCC(C)C)C(CCO)C1 (stereo not drawn),"inconclusive: 11.2 µM [activator, partial curve, poor fit]"
17,CCOC(=O)CS(=O)(=O)CC(=O)Nc1ccc([N+](=O)[O-])cc1OC,"inconclusive: 35.5 µM [activator, single point]"
18,Cc1nc(SCC(=O)N2CCCC2=O)nc(C)c1C,"inconclusive: 17.8 µM [activator, partial curve, poor fit]"
19,O=C1C(C=NCc2ccco2)=C(O)c2ccccc21,inactive
20,Cc1cccc(C)c1NC(=O)N1CCC(C(N)=O)(N2CCCCC2)CC1,inactive
21,Cc1ccc(C(=O)OCC(=O)c2ccc(Cl)s2)s1,inactive
22,O=C(COc1ccc(C(=O)c2ccc(F)cc2)cc1)Nc1cccc(S(=O)(=O)N2CCOCC2)c1,"inconclusive: 22.4 µM [inhibitor, single point]"

row,SMILES,Potency
1,CC12CN3CC(C)(CN(C1)C3c1ccc(Cl)cc1Cl)C2O (stereo not drawn),"inconclusive: 25.9 µM [activator, partial curve, poor fit]"
2,CN(CCC#N)C(=O)COC(=O)c1c2c(nc3ccccc13)/C(=C\c1ccco1)CC2,"inconclusive: 35.5 µM [inhibitor, single point]"
3,COc1ccc(-c2cc3nc(C)cc(NCCO)n3n2)cc1,"inconclusive: 18.3 µM [activator, single point]"
4,COc1cc(NC(=O)Cn2nc(C(F)(F)F)c3c2CCCC3)cc(OC)c1OC,"inconclusive: 20 µM [inhibitor, single point]"
5,CC1=C(C(=O)Nc2cccc(Cl)c2)C2(CCCCCC2)OC1=O,inactive
6,COc1ccc(S(=O)(=O)N2CCc3ccccc32)cc1OC,"inconclusive: 8.91 µM [inhibitor, partial curve, poor fit]"
7,CCOc1cc(C(=O)NCC(=O)N2CCC3(CC2)NCCc2[nH]cnc23)cc(OCC)c1OCC,"inconclusive: 5.62 µM [activator, full curve, poor fit]"
8,O=C(O)CCC(=O)Nc1ccc(-c2nc3ccc(C(=O)c4ccccc4)cc3[nH]2)cc1,inactive
9,CC(=O)OCC1OC(n2ccc(=O)[nH]c2=O)C(O)C1O (stereo not drawn),inactive
10,O=C(O)C=C1CCN(c2ncc(C(F)(F)F)cc2Cl)CC1,inactive
11,COCCCNC(=O)C1CC(=O)OC1c1ccc(OC)c(OC)c1 (stereo not drawn),inactive
12,O=C(Nc1ccc(-c2cn3cccnc3n2)cc1)c1ccccc1F,inactive
13,O=C(CN1C(=O)NC2(CCCCCC2)C1=O)N1CCC(Cc2ccccc2)CC1,"inconclusive: 15.8 µM [inhibitor, single point]"
14,CCOc1ccccc1Nc1nc2ccccc2n1C(C)C,"inconclusive: 3.16 µM [activator, full curve, poor fit]"
15,Cc1cc(Nc2ccccc2Cl)c2ccccc2n1,"inconclusive: 35.5 µM [inhibitor, partial curve, poor fit]"
16,COc1ccc(/C=C2\SC(N3CCc4ccccc4C3)=NC2=O)cc1OC,"inconclusive: 9.2 µM [inhibitor, single point]"
17,CC(C)CCNC(=O)c1ccc(Cn2c(=S)[nH]c3ccccc3c2=O)cc1,"inconclusive: 14.1 µM [inhibitor, single point]"
18,C=CCc1ccc(OCCCCN2CC(C)CC(C)C2)c(OC)c1 (stereo not drawn),"inconclusive: 31.6 µM [inhibitor, single point]"
19,O=C1CCC(=O)N1c1ccc(CSc2nc3ccccc3[nH]2)cc1,inactive
20,COc1cccc(C(=O)Nc2nc(-c3ccccc3)c(-c3ccccc3)o2)c1,"inconclusive: 11.6 µM [inhibitor, partial curve, poor fit]"
21,O=C(OCc1nc2ccc(Cl)cc2n1CCO)c1ccc(O)cc1,inactive

# Two compounds picked at random from those above, as already listed:
row,SMILES,Potency
13,O=C(CN1C(=O)NC2(CCCCCC2)C1=O)N1CCC(Cc2ccccc2)CC1,"inconclusive: 15.8 µM [inhibitor, single point]"
4,COc1cc(NC(=O)Cn2nc(C(F)(F)F)c3c2CCCC3)cc(OC)c1OC,"inconclusive: 20 µM [inhibitor, single point]"
